Results taken from paper PMC5912465.
No constants are given. Whether binding was seen depends on the method and setting. Some binding calls cover weakened binding; strength is not graded here.

Sequences of proteins named here, by UniProt entry; tags and fusion partners are left off. Residues count along the entry.
UniProt P80075, residues 24-99: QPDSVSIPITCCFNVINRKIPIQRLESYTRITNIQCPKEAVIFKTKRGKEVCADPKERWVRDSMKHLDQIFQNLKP

Molecular target: C-terminally tagged P672 (P672_RHIPU), glycosylated (Rhipicephalus pulchellus) (UniProt L7MC74)
Experiment: BLI; both purified

Substance: CCL8 (human chemokine panel) (from UniProt P80075 24-99) (ligand)
- binding: binds
